# From the supplement of paper PMC6411743
# Sequences of proteins named here, by UniProt entry; tags and fusion partners are left off. A change or cut given only in a name is not applied to a line headed by its entry.
# UniProt E9PAV3, whole entry, looked up: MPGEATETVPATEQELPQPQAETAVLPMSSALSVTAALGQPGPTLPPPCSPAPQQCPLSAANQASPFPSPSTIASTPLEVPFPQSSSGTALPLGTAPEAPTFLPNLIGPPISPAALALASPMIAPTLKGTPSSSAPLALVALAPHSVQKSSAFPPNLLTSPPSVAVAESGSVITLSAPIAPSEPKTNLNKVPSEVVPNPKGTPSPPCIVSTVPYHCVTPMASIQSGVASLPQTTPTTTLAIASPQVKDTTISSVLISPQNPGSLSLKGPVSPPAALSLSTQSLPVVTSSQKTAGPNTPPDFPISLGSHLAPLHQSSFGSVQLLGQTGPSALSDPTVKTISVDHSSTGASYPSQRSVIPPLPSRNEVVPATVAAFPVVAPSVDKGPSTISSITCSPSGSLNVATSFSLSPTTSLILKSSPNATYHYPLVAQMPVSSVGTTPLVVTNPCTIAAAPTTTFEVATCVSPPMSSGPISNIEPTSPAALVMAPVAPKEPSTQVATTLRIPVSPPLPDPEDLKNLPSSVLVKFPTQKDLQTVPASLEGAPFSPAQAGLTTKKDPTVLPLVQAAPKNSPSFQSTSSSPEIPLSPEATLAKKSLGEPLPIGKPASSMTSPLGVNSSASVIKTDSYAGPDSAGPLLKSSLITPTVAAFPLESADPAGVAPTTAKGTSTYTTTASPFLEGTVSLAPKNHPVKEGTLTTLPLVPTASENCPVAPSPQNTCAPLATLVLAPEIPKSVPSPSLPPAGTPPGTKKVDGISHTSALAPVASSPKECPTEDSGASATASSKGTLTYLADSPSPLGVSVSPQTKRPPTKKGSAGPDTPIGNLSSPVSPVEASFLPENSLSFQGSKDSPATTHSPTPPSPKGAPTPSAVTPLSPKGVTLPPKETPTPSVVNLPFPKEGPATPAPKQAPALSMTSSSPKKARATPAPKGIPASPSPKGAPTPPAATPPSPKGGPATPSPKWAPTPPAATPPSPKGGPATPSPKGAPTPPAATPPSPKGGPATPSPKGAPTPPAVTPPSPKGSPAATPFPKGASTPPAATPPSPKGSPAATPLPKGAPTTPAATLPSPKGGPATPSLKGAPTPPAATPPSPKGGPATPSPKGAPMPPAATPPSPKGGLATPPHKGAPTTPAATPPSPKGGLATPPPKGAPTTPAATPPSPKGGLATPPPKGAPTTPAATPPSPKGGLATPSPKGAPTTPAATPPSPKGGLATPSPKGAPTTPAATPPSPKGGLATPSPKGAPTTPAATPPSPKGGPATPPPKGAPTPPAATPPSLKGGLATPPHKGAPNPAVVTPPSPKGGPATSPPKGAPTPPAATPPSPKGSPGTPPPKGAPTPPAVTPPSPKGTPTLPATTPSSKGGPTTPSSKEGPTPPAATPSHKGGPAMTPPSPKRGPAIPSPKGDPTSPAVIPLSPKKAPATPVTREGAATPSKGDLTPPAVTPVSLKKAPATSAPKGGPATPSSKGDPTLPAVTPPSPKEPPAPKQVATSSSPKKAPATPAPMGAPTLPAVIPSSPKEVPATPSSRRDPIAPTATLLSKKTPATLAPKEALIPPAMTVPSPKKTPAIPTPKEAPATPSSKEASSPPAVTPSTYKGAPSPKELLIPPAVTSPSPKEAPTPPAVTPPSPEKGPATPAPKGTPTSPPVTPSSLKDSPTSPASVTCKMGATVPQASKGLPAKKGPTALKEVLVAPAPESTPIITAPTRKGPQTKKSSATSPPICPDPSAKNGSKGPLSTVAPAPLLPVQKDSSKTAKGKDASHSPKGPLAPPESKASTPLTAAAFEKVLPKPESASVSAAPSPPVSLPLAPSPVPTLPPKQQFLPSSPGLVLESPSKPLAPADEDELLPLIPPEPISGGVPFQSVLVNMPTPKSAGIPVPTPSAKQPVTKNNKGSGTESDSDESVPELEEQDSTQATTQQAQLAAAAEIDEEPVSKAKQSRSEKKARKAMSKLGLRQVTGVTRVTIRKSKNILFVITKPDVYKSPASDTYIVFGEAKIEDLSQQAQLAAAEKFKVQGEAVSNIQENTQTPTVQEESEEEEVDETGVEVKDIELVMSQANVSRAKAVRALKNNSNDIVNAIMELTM
# UniProt Q9Y6C9: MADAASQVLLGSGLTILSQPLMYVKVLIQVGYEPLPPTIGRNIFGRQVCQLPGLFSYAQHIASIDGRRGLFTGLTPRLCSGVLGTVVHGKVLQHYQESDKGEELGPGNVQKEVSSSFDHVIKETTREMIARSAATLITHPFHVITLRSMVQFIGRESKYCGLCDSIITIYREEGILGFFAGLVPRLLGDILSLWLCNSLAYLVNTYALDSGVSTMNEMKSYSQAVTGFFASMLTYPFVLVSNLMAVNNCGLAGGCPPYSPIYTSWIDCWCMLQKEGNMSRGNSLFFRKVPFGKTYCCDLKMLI
# UniProt O43674, whole entry: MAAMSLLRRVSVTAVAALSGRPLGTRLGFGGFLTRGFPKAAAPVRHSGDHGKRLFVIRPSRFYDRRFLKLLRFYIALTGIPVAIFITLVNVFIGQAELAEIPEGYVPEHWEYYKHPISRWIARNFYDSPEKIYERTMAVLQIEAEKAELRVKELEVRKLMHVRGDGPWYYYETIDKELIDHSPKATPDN
# UniProt P0DJD0, whole entry, looked up: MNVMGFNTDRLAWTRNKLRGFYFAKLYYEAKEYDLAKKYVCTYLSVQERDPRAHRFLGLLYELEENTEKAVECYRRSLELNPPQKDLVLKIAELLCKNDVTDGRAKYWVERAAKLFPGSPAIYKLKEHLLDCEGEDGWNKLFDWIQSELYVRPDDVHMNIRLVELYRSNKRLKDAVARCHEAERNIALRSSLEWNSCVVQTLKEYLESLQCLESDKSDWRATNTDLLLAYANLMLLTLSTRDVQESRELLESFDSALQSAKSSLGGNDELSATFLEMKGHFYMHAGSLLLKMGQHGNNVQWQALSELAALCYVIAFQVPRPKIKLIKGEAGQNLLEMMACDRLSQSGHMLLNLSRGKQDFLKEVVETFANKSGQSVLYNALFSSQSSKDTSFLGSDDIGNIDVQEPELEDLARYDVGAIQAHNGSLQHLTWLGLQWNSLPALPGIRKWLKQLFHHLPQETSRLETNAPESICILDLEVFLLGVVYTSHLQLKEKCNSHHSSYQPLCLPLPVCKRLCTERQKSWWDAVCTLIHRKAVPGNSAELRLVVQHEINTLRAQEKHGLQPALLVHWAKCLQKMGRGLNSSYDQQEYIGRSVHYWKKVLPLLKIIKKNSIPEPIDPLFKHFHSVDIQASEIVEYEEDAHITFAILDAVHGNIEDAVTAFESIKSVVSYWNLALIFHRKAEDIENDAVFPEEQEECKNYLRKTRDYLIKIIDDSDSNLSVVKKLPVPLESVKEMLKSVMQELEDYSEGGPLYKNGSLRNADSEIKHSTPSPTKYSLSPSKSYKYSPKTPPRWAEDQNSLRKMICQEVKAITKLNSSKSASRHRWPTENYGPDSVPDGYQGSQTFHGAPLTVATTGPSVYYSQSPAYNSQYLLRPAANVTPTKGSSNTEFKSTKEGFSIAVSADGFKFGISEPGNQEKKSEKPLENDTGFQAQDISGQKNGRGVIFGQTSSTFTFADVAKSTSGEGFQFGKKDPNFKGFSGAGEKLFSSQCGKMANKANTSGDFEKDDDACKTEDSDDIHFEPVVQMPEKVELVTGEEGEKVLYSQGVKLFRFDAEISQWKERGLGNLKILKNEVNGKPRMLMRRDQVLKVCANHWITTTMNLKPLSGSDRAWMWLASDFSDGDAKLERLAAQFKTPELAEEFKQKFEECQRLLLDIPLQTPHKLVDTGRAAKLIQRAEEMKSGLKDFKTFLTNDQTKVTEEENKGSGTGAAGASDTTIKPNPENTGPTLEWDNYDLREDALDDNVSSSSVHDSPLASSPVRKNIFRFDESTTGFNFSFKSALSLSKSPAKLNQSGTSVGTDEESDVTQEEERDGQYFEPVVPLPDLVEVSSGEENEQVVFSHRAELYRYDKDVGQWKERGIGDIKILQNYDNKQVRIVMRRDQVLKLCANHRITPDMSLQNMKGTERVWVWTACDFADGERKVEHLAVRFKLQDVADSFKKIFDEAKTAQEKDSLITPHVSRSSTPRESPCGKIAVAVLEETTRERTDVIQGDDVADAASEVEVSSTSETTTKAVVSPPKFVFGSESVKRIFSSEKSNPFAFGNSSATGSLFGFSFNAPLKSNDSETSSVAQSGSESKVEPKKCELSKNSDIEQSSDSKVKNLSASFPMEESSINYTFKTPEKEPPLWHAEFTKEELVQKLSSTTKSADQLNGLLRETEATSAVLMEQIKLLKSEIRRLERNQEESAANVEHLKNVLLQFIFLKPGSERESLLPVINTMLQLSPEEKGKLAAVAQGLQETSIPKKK
# UniProt Q8NBI5: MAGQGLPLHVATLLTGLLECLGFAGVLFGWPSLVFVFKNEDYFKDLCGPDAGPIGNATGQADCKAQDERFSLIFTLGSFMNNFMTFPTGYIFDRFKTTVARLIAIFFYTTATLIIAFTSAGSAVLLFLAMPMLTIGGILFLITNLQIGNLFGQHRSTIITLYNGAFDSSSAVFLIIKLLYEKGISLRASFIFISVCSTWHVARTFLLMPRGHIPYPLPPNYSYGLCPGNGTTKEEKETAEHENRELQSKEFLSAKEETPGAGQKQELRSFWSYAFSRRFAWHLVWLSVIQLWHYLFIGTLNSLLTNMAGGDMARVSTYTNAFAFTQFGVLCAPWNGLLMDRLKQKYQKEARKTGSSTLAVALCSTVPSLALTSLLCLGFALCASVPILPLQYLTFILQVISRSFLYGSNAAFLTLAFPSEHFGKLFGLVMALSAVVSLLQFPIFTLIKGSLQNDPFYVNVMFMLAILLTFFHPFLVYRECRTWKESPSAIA
# UniProt O95267: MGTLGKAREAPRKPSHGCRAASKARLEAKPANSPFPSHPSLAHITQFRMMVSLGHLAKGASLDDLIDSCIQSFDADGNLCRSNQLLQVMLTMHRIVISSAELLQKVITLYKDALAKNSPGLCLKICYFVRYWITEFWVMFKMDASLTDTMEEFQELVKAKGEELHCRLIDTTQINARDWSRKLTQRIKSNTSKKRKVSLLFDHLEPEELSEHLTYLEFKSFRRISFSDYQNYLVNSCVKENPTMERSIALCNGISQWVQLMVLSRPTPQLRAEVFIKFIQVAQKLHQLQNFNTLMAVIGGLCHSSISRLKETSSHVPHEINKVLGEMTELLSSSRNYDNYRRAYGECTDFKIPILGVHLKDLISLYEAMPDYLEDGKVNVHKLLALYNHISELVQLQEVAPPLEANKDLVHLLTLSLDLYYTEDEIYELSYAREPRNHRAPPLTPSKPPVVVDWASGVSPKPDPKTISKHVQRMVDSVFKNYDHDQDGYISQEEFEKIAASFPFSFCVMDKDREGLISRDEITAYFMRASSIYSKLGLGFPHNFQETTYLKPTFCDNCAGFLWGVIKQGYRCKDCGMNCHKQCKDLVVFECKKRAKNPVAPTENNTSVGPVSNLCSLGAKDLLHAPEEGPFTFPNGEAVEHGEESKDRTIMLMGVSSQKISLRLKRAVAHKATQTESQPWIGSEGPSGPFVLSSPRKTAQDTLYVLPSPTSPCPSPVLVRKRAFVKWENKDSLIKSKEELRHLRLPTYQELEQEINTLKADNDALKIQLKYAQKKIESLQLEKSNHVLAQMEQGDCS
# UniProt Q13557, whole entry: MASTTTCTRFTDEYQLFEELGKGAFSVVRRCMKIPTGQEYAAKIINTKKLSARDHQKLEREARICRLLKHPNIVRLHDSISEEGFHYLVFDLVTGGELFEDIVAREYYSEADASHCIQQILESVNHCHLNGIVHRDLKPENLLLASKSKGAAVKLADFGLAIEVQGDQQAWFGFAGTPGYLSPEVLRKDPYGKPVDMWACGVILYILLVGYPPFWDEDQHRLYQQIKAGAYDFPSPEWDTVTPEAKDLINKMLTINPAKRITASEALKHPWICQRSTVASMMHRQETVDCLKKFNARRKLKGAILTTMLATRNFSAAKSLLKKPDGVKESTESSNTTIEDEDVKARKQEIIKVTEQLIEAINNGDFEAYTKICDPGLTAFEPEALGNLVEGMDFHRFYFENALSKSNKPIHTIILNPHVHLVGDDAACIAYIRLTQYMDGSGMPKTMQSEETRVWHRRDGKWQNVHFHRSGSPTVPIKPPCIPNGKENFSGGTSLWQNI
# UniProt P63151: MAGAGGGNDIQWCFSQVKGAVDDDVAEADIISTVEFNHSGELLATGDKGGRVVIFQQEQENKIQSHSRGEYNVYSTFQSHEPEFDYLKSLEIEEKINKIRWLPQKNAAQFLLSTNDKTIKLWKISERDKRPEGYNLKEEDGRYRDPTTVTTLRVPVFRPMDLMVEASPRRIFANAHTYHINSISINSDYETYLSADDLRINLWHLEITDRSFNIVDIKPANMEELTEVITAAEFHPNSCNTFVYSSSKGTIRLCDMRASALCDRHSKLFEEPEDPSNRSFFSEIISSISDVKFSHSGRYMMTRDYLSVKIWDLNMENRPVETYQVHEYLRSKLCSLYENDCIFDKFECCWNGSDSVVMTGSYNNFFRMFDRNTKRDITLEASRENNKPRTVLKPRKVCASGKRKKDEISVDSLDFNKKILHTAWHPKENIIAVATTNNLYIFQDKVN
# ± gives the standard deviation of the averaged measurements. The list shows a part of the results, in another mix than the full data. Most values lie at the level of the controls, where differences are scatter.
# Compound: Nc1ncnc2c1ncn2[C@@H]1O[C@H](COP(=O)(O)OP(=O)(O)NP(=O)(O)O)[C@@H](O)[C@H]1O [adenylyl imidodiphosphate]
# Test: NP40-soluble protein abundance relative to vehicle (solubility fold change) (ratio); higher = more soluble protein in presence of AMP-PNP
# In short: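 Values are fold changes against the detergent-processed vehicle, based on vsn-normalised intensities. Jurkat crude lysate was treated at eight concentrations from 0.1 to 10 mM (10 min at room temperature, then 3 min at 37 °C), solubilised with 0.8% NP40 and benzonase, ultracentrifuged and analysed by TMT-labelled LC-MS/MS over three independent experiments.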
Target,NP40-soluble protein abundance (concentration: 0.1mM),NP40-soluble protein abundance (concentration: 0.5mM)
E9PAV3 and related entries (UniProt Q13765+H0YHX9+F8VZJ2+E9PAV3),0.986 ± 0.044,0.991 ± 0.055
E9PIE4 and related entries (UniProt Q9Y6C9),1.02 ± 0.056,0.997 ± 0.09
E9PB90 and related entries (UniProt P52789),0.985 ± 0.032,0.991 ± 0.022
E9PCD7 and related entries (UniProt Q9Y2E5),0.986 ± 0.013,0.973 ± 0.023
E7EQ69 (UniProt Q9GZZ1),0.998 ± 0.022,1.04 ± 0.033
E7EWP0 and related entries (UniProt O43674),1 ± 0.015,1.02 ± 0.047
F8VYC4 and related entries (UniProt P0DJD1+P0DJD0+F8VYC4),1.01 ± 0.048,0.998 ± 0.015
F5H6I7 and related entries (UniProt Q6DD88),0.9872 ± 0.0028,1.038 ± 0.0067
E7EW84 and related entries (UniProt Q8TAG9),1.01 ± 0.029,1.007 ± 0.0056
E9PS74 and related entries (UniProt Q8NBI5),1.01 ± 0.037,0.988 ± 0.032
E7ETU5 and related entries (UniProt P29558),0.957 ± 0.018,0.981 ± 0.016
F8W9L6 and related entries (UniProt Q12912),0.995 ± 0.027,0.966 ± 0.016
F5H1N7 and related entries (UniProt Q6ZU35),1.01 ± 0.022,1.04 ± 0.036
E7EUC4 and related entries (UniProt Q9NRH2),0.994 ± 0.044,0.998 ± 0.068
F5H514 and related entries (UniProt O95267),0.987 ± 0.013,1.01 ± 0.024
E9PG15 and related entries (UniProt P27348),1 ± 0.069,1.03 ± 0.078
F8VXG7 and related entries (UniProt Q99590),1.03 ± 0.029,1.05 ± 0.05
E7EVC7 and related entries (UniProt Q676U5),0.972 ± 0.033,0.978 ± 0.04
F8WC89 (UniProt A6NKF1),0.919 ± 0.063,0.927 ± 0.1
F8VSL3 and related entries (UniProt P25208),0.969 ± 0.027,1.01 ± 0.058
E9PJJ5 and related entries (UniProt Q4G0X4),1.041 ± 0.0086,0.996 ± 0.014
E9PBG7 and related entries (UniProt Q13557),0.99 ± 0.05,0.95 ± 0.023
F8VU11 and related entries (UniProt Q6NWY9),0.98482 ± 0.00015,0.979 ± 0.033
E9PGT1 and related entries (UniProt Q15631),1.04 ± 0.073,1.03 ± 0.076
E5RJV1 and related entries (UniProt P63151),0.991 ± 0.021,0.99 ± 0.042
F5H212 and related entries (UniProt P15822),0.987 ± 0.042,1.01 ± 0.08

# Single records, from the list above. Order of values: NP40-soluble protein abundance (concentration: 0.1mM)	NP40-soluble protein abundance (concentration: 0.5mM)
# E7EWP0 and related entries (UniProt O43674) is listed with 1 ± 0.015	1.02 ± 0.047
# E5RJV1 and related entries (UniProt P63151) is listed with 0.991 ± 0.021	0.99 ± 0.042
